These are yes or no findings as the source states them, for the method shown. For part of these data: Binding seen in cells or lysates may run through a third protein. Some binding calls cover weakened binding; strength is not graded here. For part of these data: Sequences can lack the tags named with a protein.
T1: Rpn6 with MBP tag, co-expressed with the other lid subunits (budding yeast (S. cerevisiae)) (UniProt Q12377)
T1 sequence: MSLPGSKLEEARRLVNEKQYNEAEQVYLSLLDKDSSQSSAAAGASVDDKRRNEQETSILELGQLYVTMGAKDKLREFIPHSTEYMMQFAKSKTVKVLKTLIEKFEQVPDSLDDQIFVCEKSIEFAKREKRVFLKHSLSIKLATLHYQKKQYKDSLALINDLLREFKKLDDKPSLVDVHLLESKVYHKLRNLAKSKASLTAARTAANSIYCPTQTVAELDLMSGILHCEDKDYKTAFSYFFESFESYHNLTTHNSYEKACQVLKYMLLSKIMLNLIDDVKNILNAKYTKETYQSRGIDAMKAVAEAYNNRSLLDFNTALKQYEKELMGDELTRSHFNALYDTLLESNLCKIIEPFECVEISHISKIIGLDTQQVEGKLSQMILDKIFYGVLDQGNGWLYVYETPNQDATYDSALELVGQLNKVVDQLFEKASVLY

Protein sequences, listed by entry. Tags and fused reporters are not part of them. Lines headed by an entry give the natural chain unless they say otherwise; changes in a name come on top.
UniProt Q01939, whole entry, looked up, stated change not applied: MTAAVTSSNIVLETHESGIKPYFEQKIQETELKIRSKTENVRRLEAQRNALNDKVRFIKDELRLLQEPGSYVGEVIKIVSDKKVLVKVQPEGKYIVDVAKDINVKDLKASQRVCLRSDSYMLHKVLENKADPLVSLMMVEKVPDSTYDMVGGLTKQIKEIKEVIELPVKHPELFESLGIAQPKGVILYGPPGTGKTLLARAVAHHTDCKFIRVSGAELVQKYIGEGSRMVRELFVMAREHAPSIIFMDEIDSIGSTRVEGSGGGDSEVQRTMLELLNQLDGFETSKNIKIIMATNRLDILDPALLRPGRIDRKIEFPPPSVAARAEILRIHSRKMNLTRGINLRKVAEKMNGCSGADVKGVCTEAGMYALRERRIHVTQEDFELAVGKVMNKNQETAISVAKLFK

T2: Rpn6 with MBP tag, co-expressed with the other lid subunits (budding yeast (S. cerevisiae)), Q12377
T2 chain: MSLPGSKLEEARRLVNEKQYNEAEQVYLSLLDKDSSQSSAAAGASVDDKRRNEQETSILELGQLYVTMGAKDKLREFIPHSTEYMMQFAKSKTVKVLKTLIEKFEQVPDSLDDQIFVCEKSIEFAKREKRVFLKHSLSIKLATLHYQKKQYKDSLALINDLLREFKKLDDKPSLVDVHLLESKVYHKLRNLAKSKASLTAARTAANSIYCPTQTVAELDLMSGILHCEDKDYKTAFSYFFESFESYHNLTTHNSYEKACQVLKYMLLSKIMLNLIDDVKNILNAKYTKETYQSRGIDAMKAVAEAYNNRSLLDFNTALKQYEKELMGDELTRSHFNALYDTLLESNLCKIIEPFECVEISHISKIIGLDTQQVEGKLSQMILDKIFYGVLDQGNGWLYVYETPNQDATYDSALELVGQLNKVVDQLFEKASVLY

B1: Rpn9, co-expressed lid subunit (protein, UniProt Q04062 1-393)
chain: MFNNHEIDTILSTLRMEADPSLHPLFEQFEKFYEEKLWFQLSESLTKFFDDAKSTPLRLRLYDNFVSKFYDKINQLSVVKYLLASLKDSKDFDESLKYLDDLKAQFQELDSKKQRNNGSKDHGDGILLIDSEIARTYLLKNDLVKARDLLDDLEKTLDKKDSIPLRITNSFYSTNSQYFKFKNDFNSFYYTSLLYLSTLEPSTSITLAERQQLAYDLSISALLGDKIYNFGELLHHPIMETIVNDSNYDWLFQLLNALTVGDFDKFDSLIKVQISKIPILAQHESFLRQKICLMTLIETVFVKNIRMLSFEDISKATHLPKDNVEHLVMRAISLGLLKGSIDQVNELVTISWVQPRIISGDQITKMKDRLVEWNDQVEKLGKKMEARGQSIWV
B2: Rpn12, co-expressed lid subunit (protein, UniProt P32496 1-274)
chain: MPSLAELTKSLSIAFENGDYAACEKLLPPIKIELIKNNLLIPDLSIQNDIYLNDLMITKRILEVGALASIQTFNFDSFENYFNQLKPYYFSNNHKLSESDKKSKLISLYLLNLLSQNNTTKFHSELQYLDKHIKNLEDDSLLSYPIKLDRWLMEGSYQKAWDLLQSGSQNISEFDSFTDILKSAIRDEIAKNTELSYDFLPLSNIKALLFFNNEKETEKFALERNWPIVNSKVYFNNQSKEKADYEDEMMHEEDQKTNIIEKAMDYAISIENIV
B3: Rpn7 W204A, E205R, T237A, co-expressed lid subunit (protein, UniProt Q06103 20-424)
chain: RVPNYEVSEKAFLLTQSKVSIEQRKEAAEFVLAKIKEEEMAPYYKYLCEEYLVNNGQSDLEHDEKSDSLNEWIKFDQELYNELCKKNESKIKELNEKIQKLEEDDEGELEQAQAWINLGEYYAQIGDKDNAEKTLGKSLSKAISTGAKIDVMLTIARLGFFYNDQLYVKEKLEAVNSMIEKGGDARRRNRYKTYYGIHCLAVRNFKEAAKLLVDSLAAFTSIELTSYESIATYASVTGLFTLERTDLKSKVIDSPELLSLISTTAALQSISSLTISLYASDYASYFPYLLETYANVLIPCKYLNRHADFFVREMRRKVYAQLLESYKTLSLKSMASAFGVSVAFLDNDLGKFIPNKQLNCVIDRVNGIVETNRPDNKNAQYHLLVKQGDGLLTKLQKYGAAVRLT
B4: Rpn5, co-expressed lid subunit (protein, UniProt Q12250 1-445)
chain: MSRDAPIKADKDYSQILKEEFPKIDSLAQNDCNSALDQLLVLEKKTRQASDLASSKEVLAKIVDLLASRNKWDDLNEQLTLLSKKHGQLKLSIQYMIQKVMEYLKSSKSLDLNTRISVIETIRVVTENKIFVEVERARVTKDLVEIKKEEGKIDEAADILCELQVETYGSMEMSEKIQFILEQMELSILKGDYSQATVLSRKILKKTFKNPKYESLKLEYYNLLVKISLHKREYLEVAQYLQEIYQTDAIKSDEAKWKPVLSHIVYFLVLSPYGNLQNDLIHKIQNDNNLKKLESQESLVKLFTTNELMRWPIVQKTYEPVLNEDDLAFGGEANKHHWEDLQKRVIEHNLRVISEYYSRITLLRLNELLDLTESQTETYISDLVNQGIIYAKVNRPAKIVNFEKPKNSSQLLNEWSHNVDELLEHIETIGHLITKEEIMHGLQAK
B5: Rpn7, co-expressed lid subunit (protein, UniProt Q06103 20-424)
chain: RVPNYEVSEKAFLLTQSKVSIEQRKEAAEFVLAKIKEEEMAPYYKYLCEEYLVNNGQSDLEHDEKSDSLNEWIKFDQELYNELCKKNESKIKELNEKIQKLEEDDEGELEQAQAWINLGEYYAQIGDKDNAEKTLGKSLSKAISTGAKIDVMLTIARLGFFYNDQLYVKEKLEAVNSMIEKGGDWERRNRYKTYYGIHCLAVRNFKEAAKLLVDSLATFTSIELTSYESIATYASVTGLFTLERTDLKSKVIDSPELLSLISTTAALQSISSLTISLYASDYASYFPYLLETYANVLIPCKYLNRHADFFVREMRRKVYAQLLESYKTLSLKSMASAFGVSVAFLDNDLGKFIPNKQLNCVIDRVNGIVETNRPDNKNAQYHLLVKQGDGLLTKLQKYGAAVRLT
B6: Rpn8, co-expressed lid subunit (protein, UniProt Q08723 1-338)
chain: MSLQHEKVTIAPLVLLSALDHYERTQTKENKRCVGVILGDANSSTIRVTNSFALPFEEDEKNSDVWFLDHNYIENMNEMCKKINAKEKLIGWYHSGPKLRASDLKINELFKKYTQNNPLLLIVDVKQQGVGLPTDAYVAIEQVKDDGTSTEKTFLHLPCTIEAEEAEEIGVEHLLRDVRDQAAGGLSIRLTNQLKSLKGLQSKLKDVVEYLDKVINKELPINHTILGKLQDVFNLLPNLGTPDDDEIDVENHDRINISNNLQKALTVKTNDELMVIYISNLVRSIIAFDDLIENKIQNKKIQEQRVKDKQSKVSDDSESESGDKEATAPLIQRKNKKN
B7: Rpn11, co-expressed lid subunit, P43588 1-306 (enzyme)
chain: MERLQRLMMNSKVGSADTGRDDTKETVYISSIALLKMLKHGRAGVPMEVMGLMLGEFVDDYTVNVVDVFAMPQSGTGVSVEAVDDVFQAKMMDMLKQTGRDQMVVGWYHSHPGFGCWLSSVDVNTQKSFEQLNSRAVAVVVDPIQSVKGKVVIDAFRLIDTGALINNLEPRQTTSNTGLLNKANIQALIHGLNRHYYSLNIDYHKTAKETKMLMNLHKEQWQSGLKMYDYEEKEESNLAATKSMVKIAEQYSKRIEEEKELTEEELKTRYVGRQDPKKHLSETADETLENNIVSVLTAGVNSVAIK
B8: Sem1 co-expressed with the other lid subunits (WT lid), O94742 1-89 (protein)
chain: MSTDVAAAQAQSKIDLTKKKNEEINKKSLEEDDEFEDFPIDTWANGETIKSNAVTQTNIWEENWDDVEVDDDFTNELKAELDRYKRENQ
B9: Rpn7 W204C (Rpn7-Rpt6 reporter pair) (protein, UniProt Q06103 20-424)
chain: RVPNYEVSEKAFLLTQSKVSIEQRKEAAEFVLAKIKEEEMAPYYKYLCEEYLVNNGQSDLEHDEKSDSLNEWIKFDQELYNELCKKNESKIKELNEKIQKLEEDDEGELEQAQAWINLGEYYAQIGDKDNAEKTLGKSLSKAISTGAKIDVMLTIARLGFFYNDQLYVKEKLEAVNSMIEKGGDCERRNRYKTYYGIHCLAVRNFKEAAKLLVDSLATFTSIELTSYESIATYASVTGLFTLERTDLKSKVIDSPELLSLISTTAALQSISSLTISLYASDYASYFPYLLETYANVLIPCKYLNRHADFFVREMRRKVYAQLLESYKTLSLKSMASAFGVSVAFLDNDLGKFIPNKQLNCVIDRVNGIVETNRPDNKNAQYHLLVKQGDGLLTKLQKYGAAVRLT

Molecular target: T1, Rpn6 with MBP tag, co-expressed with the other lid subunits (budding yeast (S. cerevisiae))
Assay: co-purification of co-expressed subunits
Settings: not given

binding, binds:
B1
B2
B3
B4
B5
B6

Molecular target: T2, Rpn6 with MBP tag, co-expressed with …
Assay: co-purification of co-expressed subunits
Settings: remark: other sources report otherwise

binding, binds:
B7
B8

Molecular target: Rpt6 I375C (Rpn7-Rpt6 reporter pair) (budding yeast (S. cerevisiae), expressed in yeast cells) (UniProt Q01939)
Assay: cross-linking
Settings: not given

binding, binds:
B9

Source: paper doi:10.1101/2022.06.27.497739
